The exact form of at least one protein or probe is not confirmed. For some assays here: A weaker result is weaker than the reference pair of the same experiment. Tags and fusion partners may be left off the protein sequences shown.
What was measured:
[1] = target: T1, GST-WRNIP1 (Homo sapiens) (UniProt Q96S55); experiment: competitive EMSA; conditions: EMSA: 50 nM DNA, 50 mM Tris-HCl pH 7.5, 150 mM KCl, 15 min 25 C, 6% native gel, DNA folded in 25 mM Tris-HCl pH 7.5, 50 mM KCl, recombinant protein, label: 5' FITC (anisotropy)
T1 sequence (looked up, limits assumed): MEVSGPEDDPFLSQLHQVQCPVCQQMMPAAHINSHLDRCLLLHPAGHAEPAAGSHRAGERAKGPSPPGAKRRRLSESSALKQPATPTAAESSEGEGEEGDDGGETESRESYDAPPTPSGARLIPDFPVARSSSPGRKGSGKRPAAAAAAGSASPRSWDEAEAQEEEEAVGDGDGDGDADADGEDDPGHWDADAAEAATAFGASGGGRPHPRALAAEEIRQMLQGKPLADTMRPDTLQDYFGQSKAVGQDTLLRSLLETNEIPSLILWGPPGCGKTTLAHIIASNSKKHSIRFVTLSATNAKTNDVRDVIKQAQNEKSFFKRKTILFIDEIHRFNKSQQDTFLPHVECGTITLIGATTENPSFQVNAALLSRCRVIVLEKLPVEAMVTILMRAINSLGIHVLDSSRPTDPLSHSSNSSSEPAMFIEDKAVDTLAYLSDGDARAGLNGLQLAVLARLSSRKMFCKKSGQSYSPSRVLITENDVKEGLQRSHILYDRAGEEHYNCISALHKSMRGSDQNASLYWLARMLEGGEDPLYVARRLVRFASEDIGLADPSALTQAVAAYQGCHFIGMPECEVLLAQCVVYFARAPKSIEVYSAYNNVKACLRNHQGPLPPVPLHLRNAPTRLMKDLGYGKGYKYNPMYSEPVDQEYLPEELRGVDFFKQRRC

[2] = target: T1, GST-WRNIP1 (Homo sapiens); experiment: fluorescence anisotropy; conditions: Anisotropy: 10 nM DNA, 50 mM Tris-HCl pH 7.5, 90 mM KCl, 5 mM EDTA, with or without 1 mM ATP and 1.25 mM MgCl2, 25 C, recombinant protein
[3] = label: 5' FITC (anisotropy), 5' Cy3 (EMSA) on strand 1
[4] = label: 5' FITC (anisotropy), 5' Cy3 (EMSA), single-stranded DNA

Question: Which results are given for “AAGCCTTATCTGTAAGTGTATGTCAATGCGTCTGCGGCTGGCTCGAGGC / TTTGCCTCGAGCCAGCCGCAGACG [CEB control partial duplex]”?
Answer: binding result ([1]; with FITC CEB G4 partial duplex, 5' Cy3 (EMSA) on strand 1): binds more weakly; Kd [2, 3]: > 5 µM

Question: Does “GTGAGATGTTGACCATGGGTGCGTCTGCGGCTGGCTCGAGGC / TTTGCCTCGAGCCAGCCGCAGACG [MYC control partial duplex]” bind ([1]; with FITC MYC G4 partial duplex, 5' Cy3 (EMSA) on strand 1)?
Answer: Result: binds more weakly

Question: And the Kd [2, 3]?
Answer: Its Kd is greater than 5 µM.

Question: Does “AAGCCTTATCTGTAAGTGTATGTCAATGCGTCTGCGGCTGGCTCGAGGC [CEB cont. ss]” bind ([1]; with FITC CEB G4 ss, 5' Cy3 (EMSA), single-stranded DNA)?
Answer: Result: binds more weakly

Question: And the Kd [2, 4]?
Answer: The Kd was greater than 5 µM.

Question: With “TGAGTGTGAGTGGTGTGAGAGCGGCGGCGGCTGGCGCGAGGC [GC-rich control]” as the sequence, how does the Kd ([2]; label: 5' FITC, single-stranded DNA) read?
Answer: The Kd was greater than 5 µM.

Question: Does “GTGAGATGTTGACCATGGGTGCGTCTGCGGCTGGCTCGAGGC [MYC cont. ss]” bind ([1]; with FITC MYC G4 ss, 5' Cy3 (EMSA), single-stranded DNA)?
Answer: Result: binds more weakly

Question: What about the Kd ([2]; 1 mM ATP, label: 5' FITC (anisotropy), 5' Cy3 (EMSA), single-stranded DNA) of the same sequence?
Answer: Its Kd is greater than 3 µM.

Question: And the Kd [2, 4]?
Answer: The Kd was greater than 5 µM.

Question: What about the Kd ([2]; no ATP (ATP comparison series), label: 5' FITC (anisotropy), 5' Cy3 (EMSA), single-stranded DNA) of the same sequence?
Answer: Its Kd is greater than 3 µM.
